Among the data in article PMC11649789 are binding values, retold here.

No constants are given. Whether binding was seen depends on the method and setting. In cells and extracts the contact can be indirect. A result given as binding can be weak or reduced; the word gives no strength.

This test has as its target FLAG-ALIX V domain. Kind of test: co-IP; HEK293T expressing FLAG, FLAG-ALIX or FLAG-tagged ALIX mutants, with Myc-PKR (Fig. 5C) or with GFP, GFP-Gal3 or GFP-Gal3 R186S (Fig. 6F); untreated or 1 mM LLOMe 30 min; NP-40 lysate, anti-FLAG antibody, Dynabeads; immunoblot (Fig. 5A, 5C, 6F). Background: Immunoblotting shows a protein as a band on a membrane.

B1: PACT, protein activator of PKR, endogenous (protein, UniProt O75569 1-313)
chain: MSQSRHRAEAPPLEREDSGTFSLGKMITAKPGKTPIQVLHEYGMKTKNIPVYECERSDVQIHVPTFTFRVTVGDITCTGEGTSKKLAKHRAAEAAINILKANASICFAVPDPLMPDPSKQPKNQLNPIGSLQELAIHHGWRLPEYTLSQEGGPAHKREYTTICRLESFMETGKGASKKQAKRNAAEKFLAKFSNISPENHISLTNVVGHSLGCTWHSLRNSPGEKINLLKRSLLSIPNTDYIQLLSEIAKEQGFNITYLDIDELSANGQYQCLAELSTSPITVCHGSGISCGNAQSDAAHNALQYLKIIAERK
For the molecule B1, the binding result is “binds”.
